Measurements taken from the supplement of paper PMC12819154, “High-throughput peptide-centric local stability assay extends protein–ligand identification to membrane proteins, tissues and bacteria” (Nature Structural & Molecular Biology, 2025).
The other results are listed elsewhere or left out. Most values lie at the level of the controls, where differences are scatter.

By UniProt entry, the sequences of proteins in these tests, tags left out. Where a name states a change or a piece, a line headed by the entry shows the natural chain unless it says otherwise.
UniProt Q8WW59: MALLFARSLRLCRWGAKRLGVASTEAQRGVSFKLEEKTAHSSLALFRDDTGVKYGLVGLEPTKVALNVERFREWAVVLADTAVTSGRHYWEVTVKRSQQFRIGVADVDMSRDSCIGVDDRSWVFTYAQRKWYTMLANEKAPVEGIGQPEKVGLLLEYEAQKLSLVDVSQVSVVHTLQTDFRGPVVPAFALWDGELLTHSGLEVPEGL
UniProt Q8WUW1: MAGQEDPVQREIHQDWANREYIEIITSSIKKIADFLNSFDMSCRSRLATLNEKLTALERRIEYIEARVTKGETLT
UniProt Q8WV44: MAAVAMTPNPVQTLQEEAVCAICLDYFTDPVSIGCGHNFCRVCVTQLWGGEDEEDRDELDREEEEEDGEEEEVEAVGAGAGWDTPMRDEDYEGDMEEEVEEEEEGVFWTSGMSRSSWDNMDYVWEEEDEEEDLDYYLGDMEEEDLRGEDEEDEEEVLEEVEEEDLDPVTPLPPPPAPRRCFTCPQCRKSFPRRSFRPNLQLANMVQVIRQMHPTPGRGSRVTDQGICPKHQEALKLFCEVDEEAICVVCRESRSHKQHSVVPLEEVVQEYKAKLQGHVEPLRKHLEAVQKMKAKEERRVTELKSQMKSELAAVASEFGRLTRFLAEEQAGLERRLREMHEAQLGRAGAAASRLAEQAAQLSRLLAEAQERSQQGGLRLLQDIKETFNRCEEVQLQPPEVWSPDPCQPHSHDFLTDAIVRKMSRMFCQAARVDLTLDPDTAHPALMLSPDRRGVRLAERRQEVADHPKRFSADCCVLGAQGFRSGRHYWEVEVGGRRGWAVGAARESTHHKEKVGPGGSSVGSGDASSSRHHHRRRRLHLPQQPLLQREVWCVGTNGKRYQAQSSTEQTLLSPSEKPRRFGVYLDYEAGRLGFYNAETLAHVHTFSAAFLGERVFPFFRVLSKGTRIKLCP
UniProt Q8WW12: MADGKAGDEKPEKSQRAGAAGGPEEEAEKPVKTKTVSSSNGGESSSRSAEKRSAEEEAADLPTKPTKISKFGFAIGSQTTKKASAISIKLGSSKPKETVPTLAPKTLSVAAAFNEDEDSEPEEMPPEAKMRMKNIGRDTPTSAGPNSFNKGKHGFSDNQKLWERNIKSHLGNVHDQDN
UniProt Q8WUX9: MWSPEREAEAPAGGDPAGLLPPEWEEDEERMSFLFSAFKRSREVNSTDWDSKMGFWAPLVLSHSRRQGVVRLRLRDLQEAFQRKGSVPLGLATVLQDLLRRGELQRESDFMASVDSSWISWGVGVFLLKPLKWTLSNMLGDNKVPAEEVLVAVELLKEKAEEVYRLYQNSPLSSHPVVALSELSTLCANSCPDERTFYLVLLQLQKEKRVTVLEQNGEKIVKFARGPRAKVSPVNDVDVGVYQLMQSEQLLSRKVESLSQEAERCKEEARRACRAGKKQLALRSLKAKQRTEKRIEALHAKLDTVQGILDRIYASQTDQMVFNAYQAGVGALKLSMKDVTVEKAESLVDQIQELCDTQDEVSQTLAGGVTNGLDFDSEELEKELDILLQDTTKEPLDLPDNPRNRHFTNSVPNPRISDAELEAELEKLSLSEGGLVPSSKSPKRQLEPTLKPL
UniProt Q92466: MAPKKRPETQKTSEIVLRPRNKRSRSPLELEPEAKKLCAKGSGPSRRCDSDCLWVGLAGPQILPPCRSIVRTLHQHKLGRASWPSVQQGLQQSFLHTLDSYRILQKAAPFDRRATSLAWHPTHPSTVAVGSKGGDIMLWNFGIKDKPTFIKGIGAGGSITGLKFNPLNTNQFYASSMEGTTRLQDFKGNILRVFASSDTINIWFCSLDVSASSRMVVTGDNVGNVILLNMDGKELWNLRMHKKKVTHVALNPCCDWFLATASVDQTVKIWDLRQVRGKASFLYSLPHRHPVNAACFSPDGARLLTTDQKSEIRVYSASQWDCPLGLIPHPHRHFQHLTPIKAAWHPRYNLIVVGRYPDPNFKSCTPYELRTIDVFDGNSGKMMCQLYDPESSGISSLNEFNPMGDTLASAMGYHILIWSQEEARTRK
UniProt Q8TD55: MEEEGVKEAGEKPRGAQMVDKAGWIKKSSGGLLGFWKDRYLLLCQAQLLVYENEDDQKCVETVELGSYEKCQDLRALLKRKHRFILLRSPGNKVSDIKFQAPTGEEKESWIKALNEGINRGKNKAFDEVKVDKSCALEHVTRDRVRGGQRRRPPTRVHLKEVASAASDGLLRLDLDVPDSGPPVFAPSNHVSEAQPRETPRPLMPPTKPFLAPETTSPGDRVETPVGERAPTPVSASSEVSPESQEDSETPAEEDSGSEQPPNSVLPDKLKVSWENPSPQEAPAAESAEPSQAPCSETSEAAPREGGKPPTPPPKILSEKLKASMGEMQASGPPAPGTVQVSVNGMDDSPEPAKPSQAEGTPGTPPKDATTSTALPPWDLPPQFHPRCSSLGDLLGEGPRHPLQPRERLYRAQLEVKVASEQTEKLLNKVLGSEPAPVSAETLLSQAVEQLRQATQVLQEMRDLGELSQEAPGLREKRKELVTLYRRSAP
UniProt Q92572: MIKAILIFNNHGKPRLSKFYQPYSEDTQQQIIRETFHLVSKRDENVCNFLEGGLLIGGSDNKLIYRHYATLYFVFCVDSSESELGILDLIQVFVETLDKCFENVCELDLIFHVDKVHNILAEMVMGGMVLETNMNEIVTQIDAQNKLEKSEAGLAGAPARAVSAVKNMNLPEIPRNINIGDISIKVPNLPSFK
UniProt Q8WTV1: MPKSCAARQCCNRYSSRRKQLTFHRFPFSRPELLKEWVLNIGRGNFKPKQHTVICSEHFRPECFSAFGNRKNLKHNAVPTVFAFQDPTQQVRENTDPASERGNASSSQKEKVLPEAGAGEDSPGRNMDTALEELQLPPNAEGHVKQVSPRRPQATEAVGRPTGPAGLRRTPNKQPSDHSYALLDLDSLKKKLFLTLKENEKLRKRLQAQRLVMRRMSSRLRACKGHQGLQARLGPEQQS
UniProt Q8WUD4: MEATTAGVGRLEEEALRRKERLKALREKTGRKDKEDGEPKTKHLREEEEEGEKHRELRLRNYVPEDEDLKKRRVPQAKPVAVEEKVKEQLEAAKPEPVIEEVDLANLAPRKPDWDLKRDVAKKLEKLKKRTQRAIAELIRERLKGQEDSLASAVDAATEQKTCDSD
UniProt Q8WXF0: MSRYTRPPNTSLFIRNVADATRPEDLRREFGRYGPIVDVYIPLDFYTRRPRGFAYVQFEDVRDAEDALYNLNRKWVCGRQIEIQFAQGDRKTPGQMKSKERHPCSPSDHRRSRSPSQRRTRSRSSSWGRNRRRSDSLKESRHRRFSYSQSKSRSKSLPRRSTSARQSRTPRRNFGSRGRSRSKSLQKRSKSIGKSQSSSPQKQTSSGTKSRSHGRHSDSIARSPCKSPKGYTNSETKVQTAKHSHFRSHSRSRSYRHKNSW
UniProt Q8WV22: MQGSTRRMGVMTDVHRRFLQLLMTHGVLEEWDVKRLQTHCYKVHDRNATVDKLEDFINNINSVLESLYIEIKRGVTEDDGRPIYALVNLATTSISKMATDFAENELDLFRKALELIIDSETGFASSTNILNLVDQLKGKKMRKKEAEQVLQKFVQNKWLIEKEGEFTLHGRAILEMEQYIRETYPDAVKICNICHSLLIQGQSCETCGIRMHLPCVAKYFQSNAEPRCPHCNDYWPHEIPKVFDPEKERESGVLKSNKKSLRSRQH
UniProt Q8WXK3: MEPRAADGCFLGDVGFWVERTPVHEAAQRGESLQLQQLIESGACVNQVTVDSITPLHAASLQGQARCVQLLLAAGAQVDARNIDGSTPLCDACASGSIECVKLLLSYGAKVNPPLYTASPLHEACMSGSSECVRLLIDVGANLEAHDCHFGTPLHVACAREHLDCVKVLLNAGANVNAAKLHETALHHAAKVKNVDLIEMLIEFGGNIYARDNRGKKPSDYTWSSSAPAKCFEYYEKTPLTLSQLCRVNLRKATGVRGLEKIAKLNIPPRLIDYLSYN
UniProt Q8TDC3: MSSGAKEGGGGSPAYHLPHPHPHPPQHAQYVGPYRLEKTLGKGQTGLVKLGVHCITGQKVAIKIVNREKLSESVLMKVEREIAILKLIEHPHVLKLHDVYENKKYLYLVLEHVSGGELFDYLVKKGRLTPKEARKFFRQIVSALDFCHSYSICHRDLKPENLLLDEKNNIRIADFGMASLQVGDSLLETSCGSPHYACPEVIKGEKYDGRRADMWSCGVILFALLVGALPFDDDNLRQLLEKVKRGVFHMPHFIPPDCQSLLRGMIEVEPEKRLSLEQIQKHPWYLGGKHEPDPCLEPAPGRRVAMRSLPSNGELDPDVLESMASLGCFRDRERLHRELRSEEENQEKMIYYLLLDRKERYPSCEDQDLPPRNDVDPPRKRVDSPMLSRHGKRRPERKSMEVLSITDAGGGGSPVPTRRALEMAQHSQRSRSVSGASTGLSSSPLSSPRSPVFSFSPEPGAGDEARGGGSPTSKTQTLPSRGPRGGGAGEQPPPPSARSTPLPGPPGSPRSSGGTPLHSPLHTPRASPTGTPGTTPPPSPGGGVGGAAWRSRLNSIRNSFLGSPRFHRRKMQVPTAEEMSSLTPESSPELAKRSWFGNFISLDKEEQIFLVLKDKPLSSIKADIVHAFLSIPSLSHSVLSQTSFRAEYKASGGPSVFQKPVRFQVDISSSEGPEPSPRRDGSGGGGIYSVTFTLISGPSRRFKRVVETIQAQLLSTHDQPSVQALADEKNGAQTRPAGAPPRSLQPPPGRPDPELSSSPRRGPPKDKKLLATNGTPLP
UniProt Q92538, whole entry: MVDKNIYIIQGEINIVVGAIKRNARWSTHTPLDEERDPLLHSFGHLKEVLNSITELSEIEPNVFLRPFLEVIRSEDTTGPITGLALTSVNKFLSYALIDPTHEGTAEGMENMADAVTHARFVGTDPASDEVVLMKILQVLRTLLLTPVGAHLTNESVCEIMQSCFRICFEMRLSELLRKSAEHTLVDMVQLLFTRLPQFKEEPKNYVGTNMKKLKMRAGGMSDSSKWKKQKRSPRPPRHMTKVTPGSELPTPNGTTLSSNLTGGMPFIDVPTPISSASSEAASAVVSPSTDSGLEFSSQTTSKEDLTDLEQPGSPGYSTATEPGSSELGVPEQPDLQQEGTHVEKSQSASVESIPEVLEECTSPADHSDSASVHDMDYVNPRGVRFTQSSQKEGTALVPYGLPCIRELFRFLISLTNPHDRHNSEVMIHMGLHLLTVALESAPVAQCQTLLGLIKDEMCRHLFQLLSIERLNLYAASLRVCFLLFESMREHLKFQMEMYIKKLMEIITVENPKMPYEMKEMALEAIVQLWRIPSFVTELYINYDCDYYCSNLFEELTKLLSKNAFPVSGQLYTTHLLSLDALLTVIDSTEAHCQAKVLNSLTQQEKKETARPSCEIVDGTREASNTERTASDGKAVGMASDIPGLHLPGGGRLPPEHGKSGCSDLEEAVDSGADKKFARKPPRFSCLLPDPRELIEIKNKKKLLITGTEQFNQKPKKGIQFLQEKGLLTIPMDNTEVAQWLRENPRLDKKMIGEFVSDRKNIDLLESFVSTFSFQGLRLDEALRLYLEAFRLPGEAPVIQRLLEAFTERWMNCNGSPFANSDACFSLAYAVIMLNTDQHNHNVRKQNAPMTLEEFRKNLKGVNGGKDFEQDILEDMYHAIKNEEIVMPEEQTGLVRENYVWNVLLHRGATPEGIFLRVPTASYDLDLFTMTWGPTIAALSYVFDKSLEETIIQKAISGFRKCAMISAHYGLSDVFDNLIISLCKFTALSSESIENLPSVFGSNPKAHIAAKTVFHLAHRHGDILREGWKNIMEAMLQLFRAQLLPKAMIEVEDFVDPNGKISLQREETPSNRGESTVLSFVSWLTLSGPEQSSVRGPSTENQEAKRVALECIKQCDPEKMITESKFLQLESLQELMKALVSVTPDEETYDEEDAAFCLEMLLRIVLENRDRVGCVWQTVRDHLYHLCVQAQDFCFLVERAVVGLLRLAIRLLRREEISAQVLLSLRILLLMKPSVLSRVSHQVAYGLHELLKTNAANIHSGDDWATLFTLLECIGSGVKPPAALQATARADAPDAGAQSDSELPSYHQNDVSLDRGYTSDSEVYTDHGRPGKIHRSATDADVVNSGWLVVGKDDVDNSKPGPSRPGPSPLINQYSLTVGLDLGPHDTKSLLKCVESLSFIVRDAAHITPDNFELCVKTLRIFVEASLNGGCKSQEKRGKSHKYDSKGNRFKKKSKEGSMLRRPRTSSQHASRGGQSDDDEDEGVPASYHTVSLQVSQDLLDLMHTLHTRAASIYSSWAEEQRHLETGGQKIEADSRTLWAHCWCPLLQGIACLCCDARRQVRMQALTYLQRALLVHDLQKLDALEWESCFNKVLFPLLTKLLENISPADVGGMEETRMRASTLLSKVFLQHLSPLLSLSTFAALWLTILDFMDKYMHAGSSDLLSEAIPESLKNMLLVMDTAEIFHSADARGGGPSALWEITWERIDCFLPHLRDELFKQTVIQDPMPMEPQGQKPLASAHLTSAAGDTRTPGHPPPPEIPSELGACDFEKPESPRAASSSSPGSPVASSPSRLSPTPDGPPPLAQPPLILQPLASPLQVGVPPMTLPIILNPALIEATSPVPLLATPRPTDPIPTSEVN

What follows are targets tested with Cc1nc(Nc2ncc(C(=O)Nc3c(C)cccc3Cl)s2)cc(N2CCN(CCO)CC2)n1 [dasatinib] (assay: log2 fold change of tryptic peptide abundance, ligand vs vehicle (limited proteolysis) (log2 ratio); higher = more trypsin-susceptible (destabilized)). Details: ligand concentration: 5 uM; sample: K562 cleared lysate.

Row | Target | log2 fold change
1 | SPRYD4 (peptide sequence: LGVASTEAQR, peptide start residue: 19) (UniProt Q8WW59) | -0.257
2 | NEK7 (peptide sequence: AACLLDGVPVALKK, peptide start residue: 51) (UniProt Q8TDX7) | -0.171
3 | ASAP3 (peptide sequence: NSGCGYSIHQHQGNK, peptide start residue: 285) (UniProt Q8TDY4) | -0.787
4 | UniProt Q8WUW1 (peptide sequence: EYIEIITSSIKK, peptide start residue: 20) | -0.479
5 | TRIM41 (peptide sequence: HYWEVEVGGRR, peptide start residue: 486) (UniProt Q8WV44) | 0.439
6 | PCNP (peptide sequence: RSAEEEAADLPTKPTK, peptide start residue: 52) (UniProt Q8WW12) | 0.0721
7 | CHMP7 (peptide sequence: EVNSTDWDSK, peptide start residue: 43) (UniProt Q8WUX9) | -0.0953
8 | CHAC2 (peptide sequence: RFWQGSTDHR, peptide start residue: 31) (UniProt Q8WUX2) | 0.32
9 | DDB2 (peptide sequence: TSEIVLRPR, peptide start residue: 12) (UniProt Q92466) | 0.272
10 | PLEKHO2 (peptide sequence: AFDEVKVDK, peptide start residue: 125) (UniProt Q8TD55) | -0.606
11 | UniProt Q92572 (peptide sequence: VPNLPSFK, peptide start residue: 186) | 0.229
12 | SHKBP1 (peptide sequence: RRGGGSFVER, peptide start residue: 657) (UniProt Q8TBC3) | -0.185
13 | UniProt Q8TF61 (peptide sequence: EKEELEER, peptide start residue: 261) | 0.636
14 | SLC35F5 (peptide sequence: FHDLPSEKPESTNIDTEKTPK, peptide start residue: 170) (UniProt Q8WV83) | -0.836
15 | USP33 (peptide sequence: SRPGSVVPTTLFQGIK, peptide start residue: 243) (UniProt Q8TEY7) | 0.218
16 | UniProt Q92600 (peptide sequence: ENALLELSK, peptide start residue: 36) | -0.132
17 | THAP3 (peptide sequence: EWVLNIGR, peptide start residue: 36) (UniProt Q8WTV1) | 0.121
18 | TSEN15 (peptide sequence: LTDGFMLPDPQNISLRR, peptide start residue: 155) (UniProt Q8WW01) | 0.0164
19 | CCDC12 (peptide sequence: NYVPEDEDLKK, peptide start residue: 61) (UniProt Q8WUD4) | 0.243
20 | SYNE2 (peptide sequence: VSRFHRR, peptide start residue: 6340) (UniProt Q8WXH0) | -0.231
21 | MIPOL1 (peptide sequence: ANMELQLQHAR, peptide start residue: 399) (UniProt Q8TD10) | -1.03
22 | UniProt Q8WXF0 (peptide sequence: GFAYVQFEDVR, peptide start residue: 52) | -0.0675
23 | FAR1 (peptide sequence: LIGDRPNTYIYTK, peptide start residue: 196) (UniProt Q8WVX9) | 0.17
24 | HDAC7 (peptide sequence: LSGSGLHWPLSR, peptide start residue: 344) (UniProt Q8WUI4) | -0.109
25 | NSMCE1 (peptide sequence: LQTHCYK, peptide start residue: 36) (UniProt Q8WV22) | -0.211
26 | UniProt Q8WXK3 (peptide sequence: LLLSYGAK, peptide start residue: 103) | 0.0964
27 | PPIL4 (peptide sequence: EQDKPPNLVLK, peptide start residue: 342) (UniProt Q8WUA2) | -0.244
28 | BRSK1 (peptide sequence: ALEMAQHSQR, peptide start residue: 420) (UniProt Q8TDC3) | 0.598
29 | GBF1 (peptide sequence: AVGMASDIPGLHLPGGGRLPPEHGK, peptide start residue: 634) (UniProt Q92538) | -0.309

Pulled one by one from the entries so far, 2 records:
Row | Target | log2 fold change
10 | PLEKHO2 (peptide sequence: AFDEVKVDK, peptide start residue: 125) (UniProt Q8TD55) | -0.606
13 | UniProt Q8TF61 (peptide sequence: EKEELEER, peptide start residue: 261) | 0.636
